# Experimental data as given in PubChem BioAssay AID256 (DTP/NCI, 2004).
# The list shows only some results of the screen, not a fair sample: it is rich in T/C values a quarter to a half above the control, in often repeated tests (any T/C) and in doses without a T/C. Further doses and runs are listed elsewhere. T/C is the treated group as % of the vehicle group. Some doses have a count of surviving animals in place of a T/C: the source holds a T/C of zero for them, seemingly a mark for toxic or unscored doses. Some survivor counts are full or nearly so, which does not show that the dose was tolerated: survival well below the control is almost never listed, so the zero probably covers shortened survival too. Counts of survivors are from the toxicity check (mostly the fifth day) where no day follows; animals may have died later. Schedule codes are those of the source, read here as Q, the interval in days (D) or hours (H), X, the number of doses. Some doses were run more than once; the results are listed from low to high. Where survival is the endpoint, the PubChem record calls one and a half times the control and up active, and a quarter to a half above the control has no call in these data; cut-offs in other NCI protocols can differ. Some T/C values are followed by the survivors on the day toxicity was checked, most often the fifth; without a count, all were alive then.
# System: CD2F1 mice, L1210 leukemia ip, survival T/C
# Test: NCI In Vivo Anticancer Drug Screen. Data for tumor model L1210 Leukemia (intraperitoneal) in CD2F1 (CDF1) mice
# Settings: higher T/C = longer survival
# In short: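 Antitumor effect is scored in animals hosting a serially transplanted tumor. Values compare compound-dosed animals against vehicle-only controls as a simple quotient.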
# [1] = T/C endpoint: mean survival time, dose: 200.0 mg/kg/injection, schedule: Q01DX009 (ip), vehicle: saline with Tween-80
# [2] = T/C endpoint: mean survival time, dose: 400.0 mg/kg/injection, schedule: Q01DX009 (ip), vehicle: saline with Tween-80
# [3] = T/C endpoint: mean survival time, dose: 400.0 mg/kg/injection, schedule: Q04DX003 (ip), vehicle: saline with Tween-80
# [4] = T/C endpoint: mean survival time, dose: 100.0 mg/kg/injection, schedule: Q01DX009 (ip), vehicle: saline
# [5] = T/C endpoint: mean survival time, dose: 400.0 mg/kg/injection, schedule: Q04DX003 (ip), vehicle: saline
# [6] = T/C endpoint: mean survival time, dose: 150.0 mg/kg/injection, schedule: Q01DX001 (ip), vehicle: saline
# [7] = T/C endpoint: mean survival time, dose: 300.0 mg/kg/injection, schedule: Q01DX001 (ip), vehicle: saline
# [8] = T/C endpoint: mean survival time, dose: 80.0 mg/kg/injection, schedule: Q01DX001 (ip), vehicle: saline
# [9] = T/C endpoint: mean survival time, dose: 100.0 mg/kg/injection, schedule: Q01DX001 (ip), vehicle: saline
# [10] = T/C endpoint: mean survival time, dose: 200.0 mg/kg/injection, schedule: Q01DX001 (ip), vehicle: saline
# [11] = T/C endpoint: mean survival time, dose: 400.0 mg/kg/injection, schedule: Q01DX001 (ip), vehicle: saline
# [12] = T/C endpoint: mean survival time, dose: 200.0 mg/kg/injection, schedule: Q01DX009 (ip), vehicle: saline
# [13] = T/C endpoint: mean survival time, dose: 200.0 mg/kg/injection, schedule: Q04DX003 (ip), vehicle: saline with Tween-80
# [14] = T/C endpoint: mean survival time, dose: 400.0 mg/kg/injection, schedule: Q01DX009 (ip), vehicle: saline
smiles,measurement,setting,value
CN1CCN(Cc2nc3cccc4c3c([n+]2[O-])-c2ccccc2-4)CC1,T/C,[1],"131 [5 of 6 alive], 133 [5 of 6 alive], 146 % of control [9 of 10 alive]"
same,survivor count,[2],"0 of 6, 3 of 10, 2 of 6"
CC(=O)OCC1OC(n2ncnc2CI)C(OC(C)=O)C(OC(C)=O)C1OC(C)=O (centres undefined),survivor count,"T/C endpoint: median survival time, dose: 100.0 mg/kg/injection, schedule: Q01DX005 (ip), vehicle: distilled water + Tween-80",0 of 6
same,survivor count,"T/C endpoint: median survival time, dose: 200.0 mg/kg/injection, schedule: Q01DX005 (ip), vehicle: distilled water + Tween-80",0 of 6
CC(C)(C)c1ccc(C(=O)C2CC2)cc1,survivor count,[3],6 of 6
Cc1cc(N=C(N)N)ccc1C(=O)Oc1ccc([N+](=O)[O-])cc1,survivor count,"T/C endpoint: mean survival time, dose: 100.0 mg/kg/injection, schedule: Q01DX009 (ip), vehicle: other",0 of 6
same,survivor count,"T/C endpoint: mean survival time, dose: 200.0 mg/kg/injection, schedule: Q01DX009 (ip), vehicle: other",0 of 6
COc1ccc(CC2=NCCc3cc(OC)c(OC)cc32)cc1OC,survivor count,[4],3 of 6
same,survivor count,"T/C endpoint: mean survival time, dose: 200.0 mg/kg/injection, schedule: Q04DX003 (ip), vehicle: saline",0 of 6
same,survivor count,[5],0 of 6
OC(c1ccccc1)C(O)c1ccccc1 (centres undefined),survivor count,"T/C endpoint: mean survival time, dose: 75.0 mg/kg/injection, schedule: Q01DX001 (ip), vehicle: saline",2 of 6
same,survivor count,[6],0 of 6
same,survivor count,[7],0 of 6
CC(=O)Nc1ccc(N=NNc2ccccc2)cc1,survivor count,"T/C endpoint: mean survival time, dose: 50.0 mg/kg/injection, schedule: Q01DX001 (ip), vehicle: Klucel (hydroxypropylcellulose) (HPC)",0 of 3
same,survivor count,"T/C endpoint: mean survival time, dose: 100.0 mg/kg/injection, schedule: Q01DX001 (ip), vehicle: Klucel (hydroxypropylcellulose) (HPC)",0 of 3
same,survivor count,"T/C endpoint: mean survival time, dose: 200.0 mg/kg/injection, schedule: Q01DX001 (ip), vehicle: Klucel (hydroxypropylcellulose) (HPC)",0 of 3
O/N=C/C1CCCC[N-]1.O/N=C/C1CCCC[N-]1.O/N=C/C1CCCC[N-]1.[Cu] (centres undefined),T/C,"T/C endpoint: median survival time, dose: 6.0 mg/kg/injection, schedule: Q03HX024 (ip), vehicle: saline",141 % of control
same,survivor count,"T/C endpoint: median survival time, dose: 10.0 mg/kg/injection, schedule: Q03HX024 (ip), vehicle: saline",4 of 10
COC1OC2COC(c3ccccc3)OC2/C(=N/O)C1[n+]1ccccc1 (centres undefined),survivor count,"T/C endpoint: mean survival time, dose: 200.0 mg/kg/injection, schedule: Q01DX001 (ip), vehicle: saline with Tween-80",0 of 6
same,survivor count,"T/C endpoint: mean survival time, dose: 400.0 mg/kg/injection, schedule: Q01DX001 (ip), vehicle: saline with Tween-80",0 of 6
O=NC1C2CCC(C2)C1Cl (centres undefined),survivor count,"T/C endpoint: mean survival time, dose: 40.0 mg/kg/injection, schedule: Q01DX001 (ip), vehicle: saline",3 of 6
same,survivor count,[8],0 of 6
same,survivor count,[9],0 of 6
same,survivor count,[10],0 of 6
same,survivor count,[11],0 of 6
O=[N+]([O-])c1cc[n+]([O-])cc1,survivor count,[6],1 of 6
same,survivor count,[7],0 of 6
CC(=O)OC1C(CO)OC(n2ccc3c(N)ncnc32)C1O (centres undefined),survivor count,[8],1 of 6
Nc1ncnc2c1ncn2C1OC(CF)C(O)C1O (centres undefined),survivor count,[11],2 of 6
Nc1nc(NNC(=O)c2ccccc2)c2nonc2n1,survivor count,"T/C endpoint: mean survival time, dose: 100.0 mg/kg/injection, schedule: Q01DX005 (ip), vehicle: other",3 of 3
CC1(C)Cc2ccccc2O1,survivor count,[2],0 of 6
N=C(N)SSC(=N)N,survivor count,[12],1 of 3
O=C(O)c1ccccc1.[Cu+2],survivor count,[9],0 of 6
same,survivor count,[10],0 of 6
same,survivor count,[11],0 of 6
Cc1ccc(S(=O)(=O)Cl)cc1,survivor count,"T/C endpoint: mean survival time, dose: 400.0 mg/kg/injection, schedule: Q04DX002 (ip), vehicle: saline",3 of 3
Cc1ccc(-n2c(=S)[nH]c3ccccc3c2=O)cc1,survivor count,[13],3 of 6
same,survivor count,[3],1 of 6
C=C(Br)CNC(=O)C(C)(C)C,survivor count,[1],3 of 6
same,survivor count,[2],4 of 6
CNCCN1CCC(Cc2ccccc2)CC1,survivor count,[14],0 of 6
Cc1cc[n+](C)c(-c2ccccc2)c1,survivor count,[4],0 of 6
same,survivor count,[12],0 of 6
same,survivor count,[14],0 of 6
CN1C(=O)CN=C(c2ccccc2)c2cc(Cl)ccc21,survivor count,"T/C endpoint: mean survival time, dose: 100.0 mg/kg/injection, schedule: Q01DX009 (ip), vehicle: Klucel (hydroxypropylcellulose) (HPC)",3 of 3
O=C(O)CCc1ccccc1-c1ccccc1,T/C,"T/C endpoint: mean survival time, dose: 400.0 mg/kg/injection, schedule: Q04DX002 (ip), vehicle: saline with Tween-80",125 % of control
CC1NC(=O)C(NC(=O)c2cnc3ccccc3n2)COC(=O)C(C(C)C)N(C)C(=O)C2CSSCC(C(=O)N(C)C(C(C)C)C(=O)OCC(NC(=O)c3cnc4ccccc4n3)C(=O)NC(C)C(=O)N2C)N(C)C1=O (centres undefined),survivor count,"T/C endpoint: mean survival time, dose: 300.0 micrograms/kg/injection, schedule: Q01DX009 (ip), vehicle: other",5 of 6
O=NNc1cccnc1,survivor count,"T/C endpoint: median survival time, dose: 50.0 mg/kg/injection, schedule: Q01DX009 (ip), vehicle: water",4 of 6
same,survivor count,"T/C endpoint: median survival time, dose: 100.0 mg/kg/injection, schedule: Q01DX009 (ip), vehicle: water",0 of 6
Cc1ccc2cc(O)ccc2c1,survivor count,[1],3 of 6
CC1=C(/C=C/C(C)=C/C=C/C(C)=C/C(=O)O)C(C)(C)CCC1,survivor count,"T/C endpoint: mean survival time, dose: 256.0 mg/kg/injection, schedule: Q01DX009 (ip), vehicle: saline with Tween-80",6 of 6
COC(CNC1=C(C)C(=O)C2=C(C1=O)[C@H](COC(N)=O)[C@]1(OC)[C@@H]3N[C@@H]3CN21)OC,T/C,"T/C endpoint: mean survival time, dose: 6.0 mg/kg/injection, schedule: Q01DX001 (ip), vehicle: water",125 % of control
same,T/C,"T/C endpoint: mean survival time, dose: 12.0 mg/kg/injection, schedule: Q01DX001 (ip), vehicle: water, evaluated on day 30",142 % of control
same,T/C,"T/C endpoint: mean survival time, dose: 12.0 mg/kg/injection, schedule: Q01DX001 (ip), vehicle: water, evaluated on day 35",128 % of control
C[n+]1cccc(C(=S)[S-])c1,survivor count,"T/C endpoint: mean survival time, dose: 100.0 mg/kg/injection, schedule: Q01DX009 (ip), vehicle: saline with Tween-80",6 of 6
same,survivor count,[13],2 of 6
same,survivor count,[3],2 of 6
CN(C)C(=S)N1C(=O)C2C3CCC(O3)C2C1=O (centres undefined),survivor count,"T/C endpoint: mean survival time, dose: 25.0 mg/kg/injection, schedule: Q04DX002 (ip), vehicle: saline with Tween-80",0 of 3
same,survivor count,"T/C endpoint: mean survival time, dose: 50.0 mg/kg/injection, schedule: Q04DX002 (ip), vehicle: saline with Tween-80",0 of 3
same,survivor count,"T/C endpoint: mean survival time, dose: 100.0 mg/kg/injection, schedule: Q04DX002 (ip), vehicle: saline with Tween-80",0 of 3
CN(C)N=Nc1c(Cl)cccc1Cl,T/C,"T/C endpoint: mean survival time, dose: 75.0 mg/kg/injection, schedule: Q01DX009 (ip), vehicle: Klucel (hydroxypropylcellulose) (HPC)",125 and 147 % of control
same,T/C,"T/C endpoint: mean survival time, dose: 150.0 mg/kg/injection, schedule: Q01DX009 (ip), vehicle: Klucel (hydroxypropylcellulose) (HPC)",142 % of control [5 of 6 alive]
O=C(O)CSc1ccccc1,survivor count,"T/C endpoint: mean survival time, dose: 100.0 mg/kg/injection, schedule: Q04DX003 (ip), vehicle: other",1 of 6
same,survivor count,[5],3 of 6
CCCCCCCCCCCCCCCCCC[n+]1ccccc1,survivor count,"T/C endpoint: mean survival time, dose: 3.12 mg/kg/injection, schedule: Q01DX001 (ip), vehicle: saline with Tween-80",0 of 3
same,survivor count,"T/C endpoint: mean survival time, dose: 6.25 mg/kg/injection, schedule: Q01DX001 (ip), vehicle: saline with Tween-80",0 of 3
same,survivor count,"T/C endpoint: mean survival time, dose: 12.5 mg/kg/injection, schedule: Q01DX001 (ip), vehicle: saline with Tween-80",0 of 3
O=c1[nH]c(-c2ccccc2)nc(-c2ccc(Cl)cc2)c1CCO,survivor count,"T/C endpoint: mean survival time, dose: 100.0 mg/kg/injection, schedule: Q04DX003 (ip), vehicle: saline with Tween-80",4 of 6
c1ccc(CSc2ncnc3nc[nH]c23)nc1,T/C,[13],136 % of control
